# Results are given in words; binding and its absence hold for the method and conditions named. Some results given as binding are weak or reduced against the parent protein; the word gives no strength.
# Molecular target: ErbB2 (UniProt P04626)
# Test: MRD identification, Example 48
row,binding,Binder
1,binds,WSGWCETSVGWHKCSGTI [EGB618]
2,binds,WSGWCLTGTDWHFCRGFI [EGB585]
3,binds,WSGWCERSWGWEQCRGTI [EGB615]
4,binds,WSGWCETGNGWDRCWGNI [EGB613]
5,binds,WSGWCETDRGWHDCHGTI [EGB604]
6,binds,WSGWCETNAGWIQCYGSI [EGB587]
7,binds,WSGWCEYEEKWAFCSGYI [EGB616]
8,binds,WSGWCEEKGQWVSCGGSL [EGB595]
9,binds,WSGWCETPGHWYQCRGSI [EGB600]
10,binds,PESWCHTLYWNLQHCLSQE [EGB607]
11,binds,WSGYCEGELQWYFCTGHL [EGB617]
12,binds,WSGWCETDQGWHHCWGTI [EGB610]
13,binds,WSGWCEAERQWTFCSGHI [EGB582]
14,binds,WSGWCEGELQWYFCSGHL [EGB596]
15,binds,WSGWCETSGGWHYCKGTI [EGB609]
16,binds,WSGWCEGRDAWYQCKGTI [EGB590]
17,binds,WSGWCESDKGWYQCRGTI [EGB598]
18,binds,WSGWCKTGKKWHHCGGTI [EGB592]
19,binds,WSGWCETSSGWHQCSGII [EGB593]

row,binding,Binder
1,binds,WSGWCRIETGWDFCSGTI [EGB619]
2,binds,YEEHCRLFPADWICSLLQ [EGB599]
3,binds,WSGWCETSKGWHFCSGTI [EGB620]
4,binds,WSGWCQTGANWHYCNGTI [EGB588]
5,binds,WSGWCETYKGWHACHGKI [EGB586]
6,binds,WSGWCEGQLQWFFCSGQI [EGB614]
7,binds,WSGWCETQKGWHSCHGSI [EGB584]
8,binds,WSGWCETKFGWNYCKGSI [EGB611]
9,binds,WSGWCETKDHWHACNGII [EGB605]
10,binds,WSGWCFATSGWHSCRGTA [EGB612]
11,binds,WSGWCNSGGGWHQCRGTI [EGB602]
12,binds,WSGWCLADGMWGHCNGTI [EGB589]
13,binds,ADSWCHTLYWNLRHCEIQE [EGB601]
14,binds,WSGWCEGEHKWSFCSGHL [EGB597]
15,binds,WSGYCLTDGTWHHCKGTI [EGB591]
16,binds,WSGWCLTDNKWHSCIGTI [EGB603]
17,binds,WSGWCENSEGWDFCNGTI [EGB583]
18,binds,WSGWCEGELQWYFCSGKI [EGB606]

# The remaining lines, values behind:
row,Binder,binding
1,WSGWCETGVGWHECHGTI [EGB581],binds
2,WSGWCFDGGRWGYCSGPL [EGB554],binds
3,WSGWCLSGVGWFHCKGMI [EGB570],binds
4,WSGWCFKITGWGHCSGLI [EGB546],binds
5,WSGWCETPCGWESCHGTI [EGB577],binds
6,WSGWCEYEFKWSFCSGHI [EGB549],binds
7,WSGWCEGELRWFFCSGTL [EGB551],binds
8,WSGWCEEALRWSYCSGHI [EGB563],binds
9,TDSWCHTLYWALQHCVAQE [EGB557],binds
10,WSGWCLRVSGWDHCSGHP [EGB556],binds
11,WSGWCEGELHWYSCSGHM [EGB574],binds
12,WSGWCFFDTHWGHCSGLL [EGB566],binds
13,WSGWCFYGDYWGHCSGQP [EGB545],binds
14,WSGWCFYGTHWGHCGGLP [EGB553],binds
15,WSGWCEYESHWSFCSGHI [EGB572],binds
16,PDSSCHTLYWQLHHCARRE [EGB561],binds
17,WSGWCLMGDSWGHCSGLI [EGB558],binds

row,Binder,binding
1,WSGWCEYELQWSFCFGPS [EGB560],binds
2,WSGWCFNHGAWGHCRGLI [EGB567],binds
3,WSGWCEGEVGWFFCSGYL [EGB559],binds
4,PDSWCHTLYWDLLYCVNQE [EGB575],binds
5,WSGWCLTREGWGHCKGLI [EGB569],binds
6,WSGWCLGDAGWGHCGGLP [EGB565],binds
7,WSGWCEGERQWSFCSGSI [EGB548],binds
8,WSGWCEGERKWSYCSGQI [EGB573],binds
9,WSGWCETPSGWKACRGNI [EGB580],binds
10,WSGWCEGESQWFFCSGLI [EGB571],binds
11,WSGWCEGDLQWYYCSGHI [EGB562],binds
12,WSGWCYEHTGWRHCHGLI [EGB568],binds
13,WSGWCEHEMYWSYCSGHK [EGB550],binds
14,WSGWCENELQWSFCSGHI [EGB547],binds
15,WSGWCESTDSWHFCRGNI [EGB579],binds
16,WSGWCLKGDGWGHCWGLI [EGB555],binds

# From patent US20160046678A1 (ZYNGENIA, published 2016)
